# The campaign covered roughly 330,000 compounds. About 7,700 (2.3%) were called active. Inconclusive means that the source gave no clear call. Such entries were picked first, then a sample of the others. Calls come from the whole dose curve; as a rule, active = well fitted inhibition curve with a large enough effect; inconclusive = small, poorly fitted or top-dose-only effect, or effect the other way; inactive = flat fitted curve, though single readings scatter. Potencies of inconclusive entries are doubtful fits and often do not repeat.
# Assay: qHTS screen for small molecules that inhibit ELG1-dependent DNA repair in human embryonic kidney (HEK293T) cells expressing luciferase-tagged ELG1; note: nearly all actives have a fitted effect of over 55% in size
# Settings: HEK293T ELG1-luciferase reporter, luminescence, 16 h, DNA damage induced by 5-fluorouridine; activity change, negative = inhibition: at 46.1 µM (top of the series)
# Summary of the method: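 Reporter activity after DNA damage by 5-fluorouridine is monitored. Compound-treated cells incubate 16 hr at 37 °C, then ONE-Glo is added for 30 min before luminescence reading.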
# % is set by controls: 0 for no effect and ±100 for the full control effect; potency is the fitted concentration of half-maximal effect.
SMILES,Potency,"activity change, negative = inhibition"
CCS(=O)(=O)NCc1cn2c(C)csc2n1,"inconclusive: 18.4 µM [activator, single point]",–
O=C(NCCO)c1cc([N+](=O)[O-])cc2c1C=Cc1ccccc1O2,"inconclusive: 32.6 µM [inhibitor, single point]",–
O=c1c2ccccc2nc2c3ccccc3ncn12,"inconclusive: 20.6 µM [activator, single point]",–
Cc1cc(OC(=O)c2ccc(Cl)cc2Cl)c([N+](=O)[O-])c(=O)[nH]1,–,inactive: -10.6%
CCOC(=O)N1CCN(C(=O)c2cc3ccc(OC)cc3[nH]2)CC1,–,inactive: 26.1%
CCc1ccccc1NC(=O)NC1CCCCC1,"inconclusive: 2.06 µM [inhibitor, partial curve, poor fit]",–
COc1ccc(C)cc1S(=O)(=O)NCC(c1cccnc1)N1CCc2ccccc2C1 (configuration not stated),"inconclusive: 9.2 µM [inhibitor, partial curve, poor fit]",–
Nn1c(-c2cccc([N+](=O)[O-])c2)nc2ccccc2c1=O,–,inactive: 12.6%
COc1cc2cnc(-c3ccsc3)c(-c3ccc(F)cc3)c2cc1OC,"inconclusive: 11.6 µM [inhibitor, partial curve, poor fit]",–
Cc1cccc(NC(=O)CN2C(=O)N/C(=C\c3ccc(N4CCOCC4)cc3)C2=O)c1,"inconclusive: 16.4 µM [activator, partial curve]",–
COc1ccc(C(=O)NCC(=O)OCC(=O)c2ccc3c(c2)OCCO3)cc1,"inconclusive: 29.1 µM [activator, single point]",–
c1ccc2c(c1)OCCOCCOc1ccccc1OCCOCCO2,"inconclusive: 16.4 µM [inhibitor, single point]",–
CCOc1cccc(C(=O)Nc2ccc3oc(-c4cccnc4)nc3c2)c1,active: 18.3 µM,–
CC(=C/c1ccc(C(C)C)cc1)/C=N/NC(=O)c1ccncc1,"inconclusive: 29.1 µM [inhibitor, single point]",–
COc1cc2c(cc1OC)CC(=O)NC=C2,"inconclusive: 29.1 µM [activator, single point]",–
Clc1ccc(Cn2ncc3c(NCc4ccco4)ncnc32)c(Cl)c1,"inconclusive: 5.17 µM [inhibitor, single point]",–
O=[N+]([O-])c1ccc(S(=O)(=O)N2CCN(Cc3ccco3)CC2)cc1,–,inactive: 6.41%
COc1cccc(NC(=O)Nc2cc(C)on2)c1,"inconclusive: 14.6 µM [activator, partial curve]",–
COc1ccccc1NS(=O)(=O)c1cccc(NC(=O)Nc2ccccc2)c1,"inconclusive: 23.1 µM [inhibitor, partial curve, poor fit]",–
C/C(CC(=O)Nc1ccc2c(c1)OCCO2)=N\NC(=O)COc1ccccc1,"inconclusive: 25.9 µM [activator, partial curve, poor fit]",–
COc1ccccc1Nc1nn2c(=O)c3ccc(C(=O)N4CCC(C)CC4)cc3nc2s1,active: 14.6 µM,–
COc1cc(/C=N/N2C(=O)CSC2=S)ccc1O,–,inactive: 4.12%
O=[N+]([O-])c1ccc(O)c(/C=N/n2cnnc2)c1,–,inactive: 0.72%
CSc1ncccc1C(=O)OCC(=O)N(C)C,–,inactive: 6.47%

# Reformatted tab-delimited: 2 of the compounds above
SMILES	Potency	activity change, negative = inhibition
CCS(=O)(=O)NCc1cn2c(C)csc2n1	inconclusive: 18.4 µM [activator, single point]	–
CSc1ncccc1C(=O)OCC(=O)N(C)C	–	inactive: 6.47%

# The list continues.

SMILES,Potency,"activity change, negative = inhibition"
COc1ccccc1NC(=O)N(Cc1ccco1)Cc1cc2cc(C)cc(C)c2[nH]c1=O,active: 18.4 µM,–
CCOC(=O)c1c(C)c(/C=N/Nc2ccccc2)n(C)c1C,"inconclusive: 23.1 µM [activator, single point]",–
COc1cccc(N2C(=O)CC(NNC(=O)c3cccs3)C2=O)c1 (configuration not stated),–,inactive: 0.617%
CC(C)(C)OC(=O)C[C@H]1C/C=C\C[C@@H](CC(=O)NCCO)C(=O)N2CCC[C@H]2COC1=O,"inconclusive: 14.6 µM [activator, single point]",–
Cc1ccc(CCNC(=O)CS(=O)Cc2nc(-c3cccs3)oc2C)cc1 (configuration not stated),–,inactive: 6.91%
Cc1cc(Cl)ccc1OCCCC(=O)NNC(=O)c1ccncc1,–,inactive: 20.7%
COc1cccc(CNC(=O)Cc2csc(Nc3nc(=S)[nH]c4ccccc34)n2)c1,"inconclusive: 29.1 µM [activator, single point]",–
Cn1c(SCCOc2ccccc2Cl)nnc1-c1cccs1,"inconclusive: 29.1 µM [activator, single point]",–
Cc1[nH]c(=O)c(C(=O)/C=C/c2ccccc2)c2c1CCCC2,active: 8.2 µM,–
CCN(CC)c1ccc(N=Cc2cc(Br)ccc2O)cc1,"inconclusive: 20.6 µM [inhibitor, single point]",–
O=C(NC(=S)N(Cc1ccccc1)Cc1ccccc1)C1CCCCC1,–,inactive: 15.8%
O=C1CSC(=Nc2cccc(Cl)c2Cl)N1Cc1cccnc1,–,inactive: -9.34%
O=C(CNC(=O)c1sc2ccccc2c1Cl)Nc1ccccc1F,"inconclusive: 13 µM [activator, partial curve, poor fit]",–
Cn1cncc1C#Cc1c(C=O)[nH]c2ccccc12,"inconclusive: 14.6 µM [inhibitor, single point]",–
O=S(=O)(Nc1ccc(-c2csc(-c3ccccc3)n2)cc1)c1ccc(F)cc1,–,inactive: 21%
CSc1nc2nc(-c3ccccc3)cc(=O)n2[nH]1,"inconclusive: 20.6 µM [activator, partial curve, poor fit]",–
Cc1ccc(N=Cc2cccc(O)c2O)c(C)c1,–,inactive: 1.61%
O=C(Cn1nnc(-c2ccccc2)n1)N1CCN(S(=O)(=O)c2ccc(Cl)cc2)CC1,"inconclusive: 14.6 µM [inhibitor, partial curve, poor fit]",–
O=C(CCc1ccc(S(=O)(=O)N2CCOCC2)cc1)Nc1ccc(F)cc1[N+](=O)[O-],–,inactive: -19.5%
CNc1nc2c(Cl)cc(Cl)cc2s1,"inconclusive: 29.1 µM [activator, single point]",–
O=C(/C=N/NC(=O)c1ccccc1Br)c1ccccc1,"inconclusive: 25.9 µM [activator, partial curve, poor fit]",–
CCOC(=O)C1CCN(C(=O)Nc2ccc3nc(-c4ccco4)c(-c4ccco4)nc3c2)CC1,"inconclusive: 20.6 µM [inhibitor, single point]",–
O=C(O)c1cccc(S(=O)(=O)Nc2cccc3ccccc23)c1,"inconclusive: 13 µM [activator, single point]",–

# Source: PubChem BioAssay AID504467 (National Center for Advancing Translational Sciences (NCATS), 2011)
